Test results reported in PubChem BioAssay AID652054 (National Center for Advancing Translational Sciences (NCATS), 2013).
Screen size: about 360,000 compounds; about 9,100 (2.5%) were called active. This list was built around the results that the source calls inconclusive (neither active nor inactive); the mix of calls is not that of the screen. Rule as the data show it: active = max response below about -50%; inconclusive = no clear call, values can overlap the other calls; inactive = above that.

The chains behind the UniProt entries cited, without tags or fusion partners.
UniProt P35462, whole entry, looked up: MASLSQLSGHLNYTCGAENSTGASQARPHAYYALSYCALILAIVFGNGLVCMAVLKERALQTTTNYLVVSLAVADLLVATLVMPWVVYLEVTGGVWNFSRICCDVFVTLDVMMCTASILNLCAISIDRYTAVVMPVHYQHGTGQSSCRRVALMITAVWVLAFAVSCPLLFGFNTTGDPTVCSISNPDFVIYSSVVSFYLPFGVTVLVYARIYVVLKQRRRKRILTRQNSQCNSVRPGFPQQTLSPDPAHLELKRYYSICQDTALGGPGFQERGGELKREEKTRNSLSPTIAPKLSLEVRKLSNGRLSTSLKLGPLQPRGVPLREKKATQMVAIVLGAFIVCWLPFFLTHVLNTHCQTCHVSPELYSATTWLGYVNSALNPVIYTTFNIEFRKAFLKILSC

What follows are compounds tested against D(3) dopamine receptor (Homo sapiens) (UniProt P35462) (assay: qHTS of D3 Dopamine Receptor Antagonist: qHTS). Conditions: D3R cells, DiscoveRx beta-arrestin luminescence, antagonist mode; stronger effect = lower value.
How it was run: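 Cells plated overnight at 1500 cells/well, then exposed to library compounds with dopamine controls for 90 minutes at 37 degrees C. DiscoveRx reagent added for 30–60 minutes at room temperature; luminescence read, quantitative HTS format.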
% is scaled to controls: 0 for no effect and ±100 for the full control effect.

Row | SMILES | max response, negative = inhibition
1 | CCOC(=O)C1(Cc2cccc(F)c2)CCN(Cc2cnn(CC)c2)CC1 | inconclusive: -38.6%
2 | COc1ccc(CN2CCN(S(=O)(=O)c3ccc(NC(C)=O)cc3)CC2)cc1OC | inactive: -16.7%
3 | COc1ccccc1NC(=O)N1CCCC1C(=O)NCc1ccc(F)cc1 (stereo unspecified) | inconclusive: -32.1%
4 | Cc1coc2c(C)c3oc(=O)c(CCC(=O)N[C@H](C(=O)O)C(C)C)c(C)c3cc12 | inactive: -5.51%
5 | O=C(NC1CCCc2ccccc21)C1CCN(c2nnc(-n3cccc3)s2)CC1 (stereo unspecified) | inconclusive: -39.1%
6 | Cc1ccc(-c2cnn(-c3cccc(C(F)(F)F)c3)c2N)cc1 | inactive: 21.6%
7 | COc1ccc(S(=O)(=O)N(c2onc(C)c2Cl)S(=O)(=O)c2ccc(OC)cc2)cc1 | inconclusive: -41.8%
8 | COc1ccccc1Cc1c(-c2cccc(Br)c2)nc2c(C)cc(Br)cn12 | inconclusive: -46.4%
9 | CC(C)(C)c1ccc(C(=O)NC(CC(=O)O)c2ccc(OC3CCCC3)cc2)cc1 (stereo unspecified) | inconclusive: -47%
10 | COc1cc(C=CC(=O)c2cc(OC)c(OC)c(OC)c2)cc(OC)c1OC | inactive: 1.2%
11 | S=C(NCCc1ccccc1)NC1CC2CCC(C1)N2Cc1ccccc1 (stereo unspecified) | active: -73.6%
12 | O=C(O)c1cc(O)c2c(c1)[C@@H]([C@H]1c3cc(C(=O)O)cc(O)c3C(=O)c3c(O[C@@H]4O[C@H](CO)[C@@H](O)[C@H](O)[C@H]4O)cccc31)c1cccc(O[C@@H]3O[C@H](CO)[C@@H](O)[C@H](O)[C@H]3O)c1C2=O | active: -50.1%
13 | S=C1NC[C@H](Cc2ccccc2)N1CC1CCN(CCCC2CCCC2)CC1 | active: -81.3%
14 | CCN(C(=O)CSc1nnc(-c2ccc(OC)cc2)n1C(C)C)C1CCS(=O)(=O)C1 (stereo unspecified) | inactive: 19.6%
15 | Cc1ccccc1CN1CCN(C/C=C/c2ccccc2)CC1 | active: -192%
16 | Cc1ccc(/C=C/C(=O)N2CCCN(C(=O)/C=C/c3ccc(C)cc3)CC2)cc1 | active: -58.5%
17 | CCN1CCc2[nH]c3ccccc3c2C1 | inconclusive: -33.7%
18 | O=C(O)Cn1c(SCc2cccc3ccccc23)nc2ccccc21 | inconclusive: -30.1%
19 | Cc1nn(-c2ccc(C(F)(F)F)cn2)c(C)c1Oc1ccccc1O | inconclusive: -36.7%
20 | COc1ccccc1CNS(=O)(=O)CCNC1CCCCC1 | active: -73.4%
21 | COc1ccc(N2CCN(c3nc(NCCc4ccc(OC)c(OC)c4)nc(OC)n3)CC2)cc1 | inactive: 58.4%
22 | O=S1(=O)CCN(Cc2csc(-c3cccs3)n2)CC1 | inactive: 3.09%

Row | SMILES | max response, negative = inhibition
23 | CCOc1ccc(OCCC(=O)OCC(=O)N2CCN(S(=O)(=O)c3ccc(C)cc3C)CC2)cc1 | inconclusive: -32%
24 | Nc1[nH]n2c(=O)cc(-c3ccccc3)nc2c1N=Nc1ccc(S(N)(=O)=O)cc1 | inconclusive: -33.2%
25 | Cc1ccc(/C(N)=N/OC(=O)c2cccs2)cc1 | inconclusive: -30.3%
26 | COc1ccc(C/C(C)=N/NC(=S)Nc2ccc(C)c(C)c2)cc1 | inconclusive: -35.9%
27 | O=C(NCCN=C1NS(=O)(=O)c2ccccc21)c1ccc(S(=O)(=O)N2CCOCC2)cc1 | inconclusive: -43.8%
28 | O=C1c2ccc(Oc3cccc([N+](=O)[O-])c3)cc2C(=O)N1c1ccccn1 | inactive: -4.51%
29 | O=C1c2cccc(NCCCNCCO)c2C(=O)c2cccc(NCCCNCCO)c21 | inconclusive: -41.7%
30 | CN(CC/C=C1/c2ccccc2CSc2ccccc21)CCCO | inconclusive: -32.4%
31 | CCOc1ncccc1C(=O)N(C)CC(=O)Nc1ccc(C)cc1 | inactive: 0.522%
32 | CSc1ccccc1-c1cnc(NC(C)=O)cn1 | inconclusive: -34.6%
33 | CC(C)(C)C(=O)NC(NC(=S)Nc1sc2c(c1C#N)CCCC2)C(Cl)(Cl)Cl (stereo unspecified) | active: -55.3%
34 | COc1ccc(C(=O)NCCc2nc3cc([N+](=O)[O-])ccc3n2C)cc1 | active: -113%
35 | C/C(=N\Nc1ncc(Br)cn1)c1cccc([N+](=O)[O-])c1 | inactive: -2.89%
36 | CNc1ccc(Br)cc(C(=O)/C=C/c2ccc(OC)cc2)c1=O | inconclusive: -49.8%
37 | CN1CCN(CCCCC(=O)c2ccccc2)CC1 | inactive: -8.37%
38 | CCN1C(=O)NC2=C(C(=O)c3ccccc32)C1c1ccccc1F (stereo unspecified) | active: -61.6%
39 | O=[N+]([O-])c1ccc(N=Nc2c(O)[nH]c3ccc(F)cc23)cc1 | inactive: -2.72%
40 | NC(N)=Nc1nc(-c2ccccc2)c2cc(Cl)ccc2n1 | inconclusive: -30.5%
41 | COc1ccc(/C(N)=N/OC(=O)c2cccc([N+](=O)[O-])c2)cc1OC | inconclusive: -47.9%
42 | CN=C(NC)SC1CC(=O)N(c2ccccc2)C1=O (stereo unspecified) | inconclusive: -37.1%
43 | O=C(/C=C/c1ccccc1)Oc1cccc2cccnc12 | inconclusive: -35.4%
44 | O=C(Nc1ccccc1NC(=O)NC1CCCCC1)NC1CCCCC1 | inconclusive: -37.6%

Row | SMILES | max response, negative = inhibition
45 | CCc1ccc(NC(=O)C(=O)NCCN2CCN(Cc3ccc([N+](=O)[O-])cc3)CC2)cc1 | inconclusive: -35.3%
46 | O=C(CCCCCN1C(=O)c2cccc([N+](=O)[O-])c2C1=O)NCCc1ccccc1 | inconclusive: -41.3%
47 | Cc1ccsc1C(=O)N(c1nc2ccccc2s1)c1c(C)cccc1C | inactive: 8.84%
48 | O=C(Nc1ccc(S(=O)(=O)N2CCCC2)cc1)c1ccc2c(=O)n3c(nc2c1)CCCCC3 | inactive: 34.6%
49 | CCOc1ccc(N(CC(=O)NCCSCc2ccccc2Cl)S(C)(=O)=O)cc1 | inactive: 8.3%
50 | C/C(=N/NC(=O)c1cc2ccccc2cc1O)C1C(=O)c2ccccc2C1=O | active: -56.4%
51 | CCOc1ccc(Nc2nc(N)c([N+](=O)[O-])c(N3CCN(CC)CC3)n2)cc1 | inconclusive: -46.2%
52 | COc1cc2c(cc1OC)CN(c1ccc(C(F)(F)F)cn1)CC2 | inactive: -11.2%
53 | Cc1cc2nc(CN(C)C(=O)C3CCC(=O)N(C4CCCC4)C3)[nH]c2cc1C (stereo unspecified) | inactive: 13.8%
54 | CN(C)/C=C/c1c([N+](=O)[O-])c2ccc(O)cc2n1-c1ccccc1 | inconclusive: -30.3%
55 | c1csc(C2Nc3cccc4cccc(c34)N2)c1 | active: -69.7%
56 | O=c1c(Cl)c(NCCCO)cnn1-c1nc2ccccc2[nH]1 | inactive: -14.7%
57 | CCOC(=O)c1sc(NS(=O)(=O)c2ccccc2)nc1C | active: -60.2%
58 | CC(=O)Nc1ccc(S(=O)(=O)NCC(=O)OCC(=O)Nc2sccc2C(N)=O)cc1 | inconclusive: -33.1%
59 | COc1ccc(NC(=O)C(c2ccncc2)n2c(=O)c(-c3ccco3)nc3ccccc32)cc1 (stereo unspecified) | inconclusive: -37%
60 | CCCS(=O)(=O)c1nc(S(=O)(=O)c2ccc(C)cc2)c(N2CCC(C)CC2)s1 | inactive: -6%
61 | OC(COc1ccc(Cl)cc1)CN1CCN(c2ccccc2)CC1 (stereo unspecified) | active: -87%
62 | Cc1ccc(-c2nnc(-c3cc(C)on3)o2)cc1 | inconclusive: -34%
63 | CC(=O)c1cccc(-n2nnnc2SCC(=O)Nc2ccccc2N2CCCCC2)c1 | inactive: 5.75%
64 | CCC1CCCCN1CCCNC(=O)c1ccc2c(c1)NC(=O)CS2 (stereo unspecified) | inactive: 1.48%
65 | O=C(c1c(Cl)cccc1Cl)N1CCCCCC1 | inconclusive: -41.4%
66 | CCn1c(CNc2ccc(Cl)cc2)nnc1SCCN1CCCCC1 | inactive: 19%

Row | SMILES | max response, negative = inhibition
67 | CCCOc1ccc(-c2nc(OCC)c3ccccc3n2)cc1 | inactive: 26.8%
68 | O=C(COc1ccc(Br)cc1)OCC(=O)N1CCOCC1 | inconclusive: -35.4%
69 | CC(C)c1ccc(S(=O)(=O)NC2CCS(=O)(=O)C2)cc1 (stereo unspecified) | inactive: 6.19%
70 | Cc1ccc(-n2c(-c3ccc(Cl)cc3)n[nH]c2=S)cc1 | inconclusive: -33.8%
71 | COc1ncccc1-c1ccc2nncn2c1 | inconclusive: -40.2%
72 | C[C@H](O)[C@@H]1CN2CCc3c([nH]c4ccccc34)[C@@H]2C[C@@H]1N(C)C(=O)Nc1cc(Cl)cc(Cl)c1 | active: -50.3%
73 | COc1cc(/C=C(\C#N)C(=O)NC(C)C)cc(Cl)c1O | inconclusive: -41.5%
74 | Cc1ccc[n+](CC(=O)N2CCCc3ccccc32)c1 | inconclusive: -32.5%
75 | CC1CCN(CCCCOc2cccc(C(C)C)c2)CC1 | active: -108%
76 | COC(=O)[C@]12CCCCC=C1N(Cc1cccc3ccccc13)C(=O)[C@H](CC(=O)NCc1cccc(C(F)(F)F)c1)C2 | inactive: 4.95%
77 | CC1CCc2c(sc(NC(=O)/C=C/c3cccs3)c2C(=O)O)C1 (stereo unspecified) | inactive: -2.95%
78 | N=C1C=CC(=C(c2ccc(N)cc2)c2ccc(N)cc2)C=C1 | inconclusive: -48.6%
79 | O=C(O)c1cc([N+](=O)[O-])ccc1NCc1ccccn1 | inconclusive: -47.4%
80 | COc1cc(C(=O)Nc2ccc3c(c2)CCN3C(C)=O)cc(OC)c1OC | inconclusive: -33.8%
81 | C#CCN(C[C@@H]1[C@@H](OC(=O)NCc2ccccc2F)[C@@H](OC(=O)NCc2ccccc2F)Cn2c(=O)n(CCCCCC)c(=O)n21)S(=O)(=O)c1ccc(C)cc1 | inactive: 8.69%
82 | Cc1cccc(CN2CCN(C3CN(Cc4ccc([N+](=O)[O-])cc4)S(=O)(=O)C3)CC2)c1 (stereo unspecified) | inconclusive: -35.2%
83 | N#CCC(=O)N/N=C/c1coc2ccccc2c1=O | inactive: 1.25%
84 | Cc1cc(C=O)c(C)n1-c1ccc(NC2CCCCC2)c([N+](=O)[O-])c1 | active: -55.1%
85 | CCc1nnc(NC(=O)c2ccc(S(=O)(=O)N(CCOC)CCOC)cc2)o1 | inconclusive: -41%
86 | Cc1ccc2[nH]c(=O)c(CN(CCO)Cc3nnnn3CCc3ccccc3)cc2c1 | inactive: -12.6%

Molecules from the list above that contain bromine (four):
Row | SMILES | max response, negative = inhibition
8 | COc1ccccc1Cc1c(-c2cccc(Br)c2)nc2c(C)cc(Br)cn12 | inconclusive: -46.4%
35 | C/C(=N\Nc1ncc(Br)cn1)c1cccc([N+](=O)[O-])c1 | inactive: -2.89%
36 | CNc1ccc(Br)cc(C(=O)/C=C/c2ccc(OC)cc2)c1=O | inconclusive: -49.8%
68 | O=C(COc1ccc(Br)cc1)OCC(=O)N1CCOCC1 | inconclusive: -35.4%
